# Measured data: PubChem BioAssay AID504804 (Drosophila RNAi Screening Center, 2011)
# Screen: 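dsRNAs that improve Kc cell survival under doxorubicin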 (primary screen)
# Cells: Drosophila Kc cells
# Reagents: long dsRNA against Drosophila genes, 0.5 µg dsRNA per well
# Timing: 96 h (48 h knock-down, then 48 h drug)
# Challenge: doxorubicin 5 µg/ml for 48 h, added 48 h after dsRNA
# Measured: 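Luminescent ATP counts per replicate, not normalised, reflecting viable cells after 48 h dsRNA knock-down followed by 48 h of 5 µg/ml doxorubicin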
# Scale: raw ATP luminescence: higher = more viable cells, protection from doxorubicin
# Hit rule: 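z-score of 2 or more over plate mean in both duplicates, retained only when retests and separate dsRNAs confirm the protection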
# The deposit covers about 19,000 reagents; below is an unselected part of those that have a named target and a result. Of all reagents, 47 (0.25%) are marked active. 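Signals are raw, not normalised; exact z-scores behind calls not deposited; actives needed confirmation, so some wells reaching 2 SD are inactive.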 Unmarked entries are inactive. Reagents against one gene are numbered here. A plus sign joins genes that one reagent is predicted to hit. Reagent sequences are not shown.
Gene,dsRNA no.,SD above plate mean,"raw ATP luminescence, replicate 1","raw ATP luminescence, replicate 2"
CG5577,1,,23437,25830
msl-3,1,,85507,91433
Vps15,1,,61513,33800
Acox57D-p,1,,68193,57537
CG6738,1,,83210,80600
nac,1,,58930,46563
Ir85a,1,,51400,55590
Chchd2,1,,4.01e5,2.93e5
CG14929 + CG4970 + CG14930,1,,45007,88017
E(spl)mgamma-HLH,1,,1.05e5,87820
CG43333,1,,54300,72827
Klp59D,1,,40127,68337
Ntf-2r,1,,41087,51850
tutl,1,,32147,26690
tutl,2,,27100,29103
tutl,3,,27660,20140
Zdhhc8,1,,2.44e5,2.65e5
Zdhhc8,2,,3.80e5,3.46e5
CG11598,1,,57817,58570
CG9777,1,,3.13e5,2.38e5
Sap130,1,,91283,76140
TotC,1,,1.52e5,1.80e5
CtBP,1,,42170,20077
Fbp1,1,,41280,30063
Acadvl,1,,63447,76757
ham,1,,44330,41903
ham,2,,63403,58673
ham,3,,64630,66900
CG16815,1,,49400,83203
SdhC,1,,56237,44497
Ppa,1,,57687,50047
CG6569,1,,64990,81150
kra,1,,55103,22053
Det,1,,81940,70820
CG6041,1,,38370,52220
subdued,1,,49500,37333
Ugt301D1,1,,40630,43493
CG44422,1,,2.70e5,3.62e5
CG44422,2,,2.91e5,2.79e5
CG44422,3,,2.24e5,2.63e5
CG14826,1,,66490,77190
CG11816,1,,1.67e5,1.90e5
CecA2,1,,30710,34390
CG4968,1,,88453,76577
eIF3a,1,,66053,51403
Hacd1,1,,1.01e5,62440
CkIIbeta,1,,3.65e5,3.71e5
CG4960,1,,56230,70290
Takl1,1,,1.22e5,1.40e5
OtopLc,1,,35330,49840
OtopLc,2,,33700,37940
OtopLc,3,,43370,55450

An excerpt of the results above:
Gene,dsRNA no.,SD above plate mean,"raw ATP luminescence, replicate 1","raw ATP luminescence, replicate 2"
CecA2,1,,30710,34390
CG4968,1,,88453,76577
eIF3a,1,,66053,51403
Hacd1,1,,1.01e5,62440
CkIIbeta,1,,3.65e5,3.71e5
CG4960,1,,56230,70290
Takl1,1,,1.22e5,1.40e5
OtopLc,1,,35330,49840
OtopLc,2,,33700,37940
OtopLc,3,,43370,55450

The results go on:
Gene,dsRNA no.,SD above plate mean,"raw ATP luminescence, replicate 1","raw ATP luminescence, replicate 2"
CG1344,1,,73390,57817
RpS15Ab + RpS15Aa,1,,20647,30347
RpS15Ab + RpS15Aa,2,,1.49e5,1.54e5
sesB,1,,2.02e5,1.84e5
Tsp42Eh,1,,48517,70867
Vha68-2,1,,59117,68707
CG4080,1,,37847,31007
Polr2K,1,,91833,90503
CG6005,1,,37483,45887
cno,1,,59990,53280
cno,2,,15537,14680
Atf-2,1,,69523,44000
Atf-2,2,,1.64e5,1.50e5
mfr,1,,71207,76067
CG15153,1,,57897,63793
CG5906,1,,90530,73913
Dnz1,1,,88977,69283
CG32204,1,,41447,29273
Irk1,1,,55290,68130
eIF3d1,1,,72840,61570
CG10283,1,,81003,71903
CG18324,1,,95707,63110
eater,1,,49920,42120
Nup93-2,1,,78853,32670
Ugt302E1,1,,24167,51970
Golgin84,1,,58830,45070
SdhCL,1,,45587,45877
Or85d,1,,66200,68280
CycJ,1,,40053,38087
CG17784,1,,65280,87410
CG33125,1,,2.74e5,3.20e5
NimA,1,,2.01e5,1.54e5
HUWE1,1,,3.18e5,3.19e5
Cyp12c1,1,2 to 3 SD above plate mean,49720,43300
naz,1,,71670,74580
naz,2,,67250,71750
GABPI,1,,1.08e5,75393
PH4alphaNE2,1,,43220,45440
Cyp28a5,1,,85760,72547
Idua,1,,1.11e5,87467
CG11695,1,,2.34e5,2.12e5
SNRPG,1,,3.52e5,3.43e5
Hmbs,1,,77330,90897
CG5024,1,,72490,69660
Or42b,1,,46050,59080
Rlip,1,,60030,55780
CG14191,1,,4.00e5,2.70e5
CG15207 (retired record),1,,3.42e5,3.96e5
Srx,1,,4.53e5,3.54e5
sd,1,,3.42e5,3.72e5
Oct-TyrR,1,,75920,58487
Acbp5,1,,85543,74387
CG3640,1,,45710,54227
CG15625,1,,24877,33783
SkpF + CG5357 (retired record),1,,58753,51697
